The AC50 is the midpoint of the concentration-response curve, whichever way the signal moves.

“And” between values parts separate entries of the source, which are not always exact repeats. Identical values can stand only once. The list shows a part of the results. These are further read-outs of the screen, such as a control signal, another cell line or another target. No call is given for them. The list favours compounds with an active or inconclusive main result. For part of these data: Words in brackets tell the shape of the fitted curve; partial curves, single points and poor fits give uncertain potencies.

A short description of experiment [1]: Validation of Assay for Modulators of Lamin A Splicing (AID 1459). The conditions noted are these: Lamin A splicing dual RFP/GFP fluorescence reporter, ratio. An outline of the steps: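 Readout: ratio of GFP (500-530 nm) to RFP (575-640 nm) total object intensity by 488 nm laser-scanning cytometry after 48 hrs. Cells were HeLa S3 clones carrying lamin A-EGFP minigene plus DsRed2 viability reporter; vehicle 0.5% DMSO final.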

Experiment [2] in a line: qHTS Assay for Lipid Storage Modulators (AID 1519). The conditions noted are these: Drosophila S3 cells, BODIPY lipid droplet/cell ratio, laser cytometry, cells loaded with oleic acid. An outline of the steps:
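Cells seeded at 5,000 per well were treated with compounds over a concentration series and loaded with oleic acid (400 uM, as added). Lipid droplet fluorescence (488 nm excitation, 500-530 nm channel) was read by laser-scanning cytometry and normalized to 20 uM Triacsin C.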
In general terms: qHTS replaces the single test concentration by a dilution series.

Experiment [3] in a line: qHTS Assay for Modulators of Human Peripheral Myelin Protein 22 (PMP22) Expression/Activity (AID 1967). The conditions noted are these: Cell-based PMP22 reporter, dual-color luciferase ratio. In outline: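 Mouse MSC80 Schwann line, Pmp22 promoter–CBG68 reporter, EF-alpha–CBR internal control. 24h compound exposure, 37 °C/5% CO2, DMEM + 10% FBS. Readout: corrected green/red luminescence ratio, normalized to untreated cells; concentration-response curves fitted and classified.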

Experiment [4] in a line: qHTS Validation Assay to Find Inhibitors of Chronic Active B-Cell Receptor Signaling (AID 485345). The conditions noted are these: ABC-DLBCL cells, chronic BCR signaling reporter. In outline:
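TMD8 ABC-DLBCL cells with dox-inducible green luciferase–IκBα fusion and red native luciferase; compounds 46 uM–3 nM, 4 h at 37C with doxycycline in 0.5% FBS IMDM. Green/red ratio normalized to basal and 10 uM MG-132.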

Experiment [5] can be described thus: Nrf2 qHTS screen for inhibitors: Validation (AID 493153). The conditions noted are these: A549 ARE-Fluc reporter, 18-24 h; AC50: CellTiter-Fluor fluorescence read, measured here: cytotoxicity CellTiter-Fluor AC50; viability change: measured here: cytotoxicity max response. An outline of the steps:
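Luminescence from an ARE-firefly luciferase reporter in A549 cells gives Nrf2 inhibition; an earlier CellTiter-Fluor fluorescent read flags cytotoxicity. Cells in 5% FBS OPTI-MEM received compound dilution series for 18-24 h at 37°C.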

Experiment [6] is described as follows: qHTS for identification of novel therapeutic agents for treatment of microphthalmiaassociated transcription factor (MiT) renal cell carcinoma (RCC) (AID 1963991). The following applies: CellTiter-Glo, 48 h; for z-score: stronger effect = lower value. An outline of the steps:
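Viability of three TFE3-fusion renal carcinoma lines measured by CellTiter-Glo after 48 h treatment with each of 1912 compounds at 11 concentrations. Responses scaled between DMSO (100%) and empty wells (0%) before curve fitting.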

The nature of experiment [7]: qHTS assay for small molecule antagonists of vitamin D receptor signaling (AID 588541). The following applies: HEK293T VDR-UAS-bla, beta-lactamase ratio, antagonist mode; measured here: W460 blue channel (cell viability).
Experiment [8] is described as follows: A High-Content qHTS Against Drug Library for the Identification of Small Molecules that Inhibit DYT1 Early Onset Primary Dystonia-Associated Cell Pathology (AID 1645839). The conditions noted are these: HEK293 Flp-In EGFP-delE TorsinA, punctate imaging, 48 h; measured here: cell count cytotoxicity. An outline of the steps:
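Readout: %pathology, the punctate EGFP-TorsinA distribution from imaging, as the primary channel and cell count as the toxicity counterscreen. HEK293 Flp-In cells expressing delE TorsinA were induced with tetracycline and treated with compound for 48 h.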

Experiment [9] can be described thus: qHTS assay for small molecule antagonists of peroxisome proliferator-activated receptor delta signaling (AID 588535).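 Also: cells co-treated with a PPAR-delta agonist as stimulator during compound exposure.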 The following applies: HEK293T PPARd-UAS-bla, beta-lactamase FRET ratio, 18 h; 460 nm channel. An outline of the steps: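 Reporter: UAS-bla under PPAR-delta response element, HEK293T host. Medium: 2% charcoal/dextran FBS. Dosing: titration, 18 hrs, 37 C. Detection: CCF4, 2 hrs RT, 405 ex/460 and 530 em.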

The mark [10] stands for this setting: measured here: cell count channel max response.
Where [11] appears, read: measured here: lipid (BODIPY) channel AC50.
Setting [12] is: measured here: lipid channel max response.
Where [13] appears, read: measured here: green reporter channel AC50, mouse Pmp22 promoter in mouse Schwann cells.
Setting [14] is: measured here: red reporter channel AC50, EF-alpha promoter control reporter in MSC80 mouse Schwann cells.
The mark [15] stands for this setting: measured here: CBG/CBR ratio read-out.
[16] abbreviates: measured here: CBR control luciferase (viability counter).
[17] abbreviates: measured here: cell number channel AC50.
Setting [18] is: TFE3-RCC UOK109 viability, measured here: UOK109 Z-AUC.
The mark [19] stands for this setting: TFE3-RCC viability, measured here: UOK124 Z-AUC.
Where [20] appears, read: TFE3-RCC viability, measured here: UOK124 cell viability.
[21] abbreviates: TFE3-RCC viability, measured here: UOK145 Z-AUC.
The mark [22] stands for this setting: TFE3-RCC viability, measured here: UOK145 cell viability.

Consider `CC1(C(=O)O)C2CCC(O2)C1(C)C(=O)O` (stereo not drawn), for which the AC50 in experiment [1] (measured here: GFP channel) is 4.47 µM [falling, full curve]; in experiment [1] (measured here: RFP channel), 14.1 µM [falling, single point]; in experiment [2] (setting [11]) it was 2.51 µM [falling, partial curve, poor fit]; in experiment [3] (setting [13]), 19 µM [falling, full curve]; in experiment [3] (setting [14]), 16.9 µM [falling, full curve]; in experiment [4] (setting [15]), 6.51 µM [falling, single point]. The concentration at half-maximal activity (AC50) was 2.91 µM [rising, full curve] in [4] (setting [16]) and 1.46 µM [falling, full curve] in experiment [5]. Further, the max response in experiment [2] (setting [10]) was 14.7%; in experiment [2] (setting [12]), 7.42%. Also, the viability change in [5] was -40.9%.
For `c1ccc(CCCN2CCN(CCOC(c3ccccc3)c3ccccc3)CC2)cc1`, the concentration at half-maximal activity (AC50) in experiment [1] (measured here: GFP channel) is 35.5 µM [falling, single point]; in experiment [1] (measured here: RFP channel), 25.1 µM [falling, single point]; in [2] (setting [17]) it was 14.1 µM [rising, partial curve, poor fit]; in experiment [2] (setting [11]) it was 15.8 µM [rising, partial curve, poor fit]; in experiment [3] (setting [13]) it was 42.6 µM [falling, full curve]; in experiment [3] (setting [14]) it was 37.9 µM [falling, full curve]. Besides, the concentration at half-maximal activity (AC50) in experiment [6] (setting [20]) is 20.9 µM [falling, partial curve]; in experiment [6] (setting [22]), 20.9 µM [falling, partial curve, poor fit]. Besides, the max response was 60.4% and -102% in [2] (setting [10]); 71.3% and -107% in experiment [2] (setting [12]). Also, the z-score in experiment [6] (setting [18]) was 0.0714; in experiment [6] (setting [19]), -0.248; in [6] (setting [21]), -0.0424.
Consider `O=c1[nH]c2ccccc2n1C1CCN(CCCC(c2ccc(F)cc2)c2ccc(F)cc2)CC1`, for which the AC50 in [1] (measured here: GFP channel) is 35.5 µM [falling, single point]; in experiment [1] (measured here: RFP channel) it was 28.2 µM [falling, partial curve]; in [2] (setting [17]), 8.91 µM [rising, partial curve] and 20 µM [falling, single point] and 8.91 µM [falling, full curve, poor fit]; in experiment [2] (setting [11]) it was 2.82 µM [rising, partial curve, poor fit] and 12.6 µM [falling, full curve, poor fit]; in experiment [3] (setting [13]), 33.8 µM [falling, full curve]; in [3] (setting [14]) it was 26.9 µM [falling, full curve]. Also, the AC50 in experiment [4] (setting [15]) is 18.4 µM [falling, partial curve]; in experiment [4] (setting [16]), 2.31 µM [rising, full curve, poor fit]; in experiment [5], 29.1 µM [falling, partial curve, poor fit]; in [7], 0.398 µM [rising, full curve, poor fit]; in [8], 11.2 µM [falling, partial curve]. For the same molecule, the viability change in experiment [5] is -39.3%.
As for `C=CCN1CC[C@]23c4c5ccc(O)c4O[C@@H]2/C(=N/N=C2\CC[C@@]4(O)C6Cc7ccc(O)c8c7[C@@]4(CCN6CC=C)[C@@H]2O8)CC[C@@]3(O)C1C5`, the concentration at half-maximal activity (AC50) in [1] (measured here: GFP channel) is 35.5 µM [falling, single point]; in [1] (measured here: RFP channel) it was 28.2 µM [falling, single point]; in experiment [2] (setting [17]), 44.7 µM [rising, single point]; in [2] (setting [11]), 44.7 µM [rising, single point]; in experiment [3] (setting [13]), 33.8 µM [falling, full curve]; in experiment [3] (setting [14]), 42.6 µM [falling, full curve]. Besides, the max response in experiment [2] (setting [10]) is 71.9%; in experiment [2] (setting [12]), 74.9%.
With `O=C1OC(=O)C2C3CCC(O3)C12` (stereo not drawn), the half-maximal activity concentration (AC50) in [1] (measured here: GFP channel) was 20 µM [rising, partial curve]; in experiment [1] (measured here: RFP channel), 20 µM [rising, partial curve]; in [2] (setting [17]), 15.8 µM [falling, single point]; in [2] (setting [11]), 15.8 µM [falling, single point]; in [3] (setting [14]) it was 75.7 µM [falling, partial curve]. In addition, the max response in experiment [2] (setting [10]) is -4.01%; in [2] (setting [12]), -0.167%.
For `CN1C2CCC1CC(OC(=O)C(CO)c1ccccc1)C2` (stereo not drawn), the concentration at half-maximal activity (AC50) in [1] (measured here: GFP channel) was 35.5 µM [falling, single point]; in experiment [1] (measured here: RFP channel), 35.5 µM [falling, single point].
As to `O=c1ccn([C@@H]2O[C@H](COP(=O)(O)OP(=O)(O)O)[C@@H](O)[C@H]2O)c(=O)[nH]1`, the AC50 was 4.47 µM [falling, full curve, poor fit] in experiment [1] (measured here: GFP channel); 4.47 µM [falling, full curve, poor fit] in experiment [1] (measured here: RFP channel); 84.9 µM [falling, single point] in experiment [3] (setting [14]).
With `Clc1ccc(C(c2ccc(Cl)cc2)n2cc[n+](CC(OCc3ccc(Cl)cc3Cl)c3ccc(Cl)cc3Cl)c2)cc1` (stereo not drawn), the AC50 in [1] (measured here: GFP channel) is 14.1 µM [falling, partial curve]; in experiment [1] (measured here: RFP channel), 14.1 µM [falling, partial curve]; in [3] (setting [13]), 37.9 µM [falling, full curve]; in experiment [3] (setting [14]), 37.9 µM [falling, full curve]; in [5], 18.4 µM [falling, partial curve, poor fit]. In addition, the max response in experiment [2] (setting [10]) was -103%; in experiment [2] (setting [12]), -112%. Further, in experiment [5], the viability change is -26.9%.
For the molecule `O=C(O)CCCc1ccc(N(CCCl)CCCl)cc1`, the AC50 in [1] (measured here: GFP channel) is 15.8 µM [falling, single point]; in experiment [1] (measured here: RFP channel) it was 15.8 µM [falling, single point]; in experiment [3] (setting [13]), 1.9 µM [falling, full curve]; in experiment [3] (setting [14]), 33.8 µM [falling, partial curve]; in experiment [4] (setting [16]), 4.61 µM [rising, full curve, poor fit]; in experiment [6] (setting [20]) it was 7.43 µM [rising, single point]. In addition, the AC50 in experiment [6] (setting [22]) is 37.2 µM [falling, partial curve, poor fit]. Also, the max response in [2] (setting [10]) was determined as 39.2%; in experiment [2] (setting [12]), 37.5%; in experiment [9] it was 65.5%. For the same molecule, the viability change in [5] was -9.52%. In addition, the z-score is -0.0979 in experiment [6] (setting [18]), -0.516 in experiment [6] (setting [19]) and -0.504 in experiment [6] (setting [21]).
